Hit rate of the full screen: of about 580,000 compounds, about 6,100 (1.1%) were called active. Inconclusive means that the source gave no clear call. Such entries were picked first, then a sample of the others. Calls follow the shape of the dose curve; as a rule, active = well fitted inhibition curve with a large enough effect; inconclusive = small, poorly fitted or top-dose-only effect, or another doubt; inactive = no such curve, though single readings can be large or run the other way. Where the call is inconclusive, the potency comes from a doubtful curve fit.
Molecular target: Polyunsaturated fatty acid lipoxygenase ALOX12 (Homo sapiens) (UniProt P18054)
Assay: Primary qHTS assay for inhibitors of human arachidonate 12S-lipoxygenase (ALOX12): Round 2
Details: purified 12hLO, xylenol orange hydroperoxide absorbance; activity change, negative = inhibition: at 108 µM (top of the series) unless noted
Outline: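 Purified human 12hLO at 150 nM in 25 mM Hepes, 0.01% Triton X-100, pH 7.0, preincubated 15 min at room temperature with compound. Reaction started with 40 uM arachidonic acid, 30 min at room temperature. Hydroperoxide measured by Fe-xylenol orange, 573/405 nm absorbance ratio.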
% is scaled to controls: 0 for no effect and ±100 for the full control effect; potency is read from the fitted curve at half-maximal effect.

Sequences of proteins named here, by UniProt entry; tags and fusion partners are left off. A change or cut given only in a name is not applied to a line headed by its entry.
UniProt P18054: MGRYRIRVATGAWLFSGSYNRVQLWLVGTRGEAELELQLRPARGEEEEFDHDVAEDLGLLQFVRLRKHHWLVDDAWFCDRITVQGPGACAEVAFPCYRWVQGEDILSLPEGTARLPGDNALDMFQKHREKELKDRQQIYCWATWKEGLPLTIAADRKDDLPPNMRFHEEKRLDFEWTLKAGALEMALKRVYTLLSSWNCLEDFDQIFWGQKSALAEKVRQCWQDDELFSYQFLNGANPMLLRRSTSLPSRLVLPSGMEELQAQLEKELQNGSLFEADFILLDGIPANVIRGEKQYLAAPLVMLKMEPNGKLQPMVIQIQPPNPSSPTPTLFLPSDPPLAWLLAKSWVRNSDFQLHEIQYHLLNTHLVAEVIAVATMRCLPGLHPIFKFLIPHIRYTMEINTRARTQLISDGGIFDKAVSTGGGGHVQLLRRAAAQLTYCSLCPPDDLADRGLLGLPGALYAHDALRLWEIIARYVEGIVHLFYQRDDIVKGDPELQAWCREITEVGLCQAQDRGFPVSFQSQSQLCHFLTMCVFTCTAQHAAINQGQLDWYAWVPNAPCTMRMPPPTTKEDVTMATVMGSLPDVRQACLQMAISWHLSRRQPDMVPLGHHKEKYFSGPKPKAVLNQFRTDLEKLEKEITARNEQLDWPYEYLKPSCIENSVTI

| SMILES | Potency | activity change, negative = inhibition |
| --- | --- | --- |
| Cc1ccc(C(=O)c2ccccc2C(=O)OCC(=O)NCCc2ccccc2)cc1 | inconclusive: 126 µM [inhibitor, partial curve, poor fit] |  |
| CCNC(=O)O[C@@H]1CO[C@H]2[C@@H]1OC[C@@H]2NC(=O)c1cccc(C(=O)OC)c1 | inconclusive: 25.1 µM [inhibitor, full curve] |  |
| Cc1ccc(OCc2cc(=O)n3oc(C)cc3n2)c(NC(=O)c2ccccc2C(F)(F)F)c1 |  | inactive: -10.1% |
| Cc1ccc(-n2nnc(C(=O)NC3CCCCCC3)c2C)cc1C | inconclusive: 44.7 µM [inhibitor, partial curve, poor fit] |  |
| CCn1c(-c2ccoc2C)n[nH]c1=S | inconclusive: 35.5 µM [inhibitor, partial curve, poor fit] |  |
| O=C(COC(=O)c1ccc(F)c([N+](=O)[O-])c1)NC(=O)NCc1ccccc1 |  | inactive: 386% |
| COc1ccc(CCn2c(N)c(C(=O)NCc3ccco3)c3nc4ccccc4nc32)cc1OC |  | inactive: -23.5% |
| Cc1cnc(CNc2cc(-c3ccccc3Cl)ncn2)cn1 | inconclusive: 1.58 µM [inhibitor, full curve, poor fit] |  |
| O=C(c1ccc(COc2ccc(F)cc2)o1)n1cc(Br)cn1 | inconclusive: 39.8 µM [inhibitor, partial curve, poor fit] |  |
| O=C(C1=C[C@@H](C2CC2)C[C@@H](OCCCCO)O1)N1CCOCC1 | inconclusive: 112 µM [inhibitor, single point] |  |
| CCOc1ccc(C(=O)Nc2ccc(-n3nncc3-c3ccc(OC)cc3)cc2)cc1 |  | inactive: 5.36% |
| Cc1nc2[nH]c(=S)[nH]c(=O)c2nc1C | inconclusive: 5.62 µM [inhibitor, full curve, poor fit] |  |
| CCc1noc(-c2cn(C3CCN(C(=O)c4ccc(OC)cc4OC)CC3)nn2)n1 |  | inactive: 9.43% |
| O=c1[nH]c(C2CCN(Cc3ccccc3C(F)(F)F)CC2)nn1Cc1ccccc1 |  | inactive: 17.5% |
| O=C(COC(=O)[C@@H]1CCCN1C(=O)c1cccs1)Nc1cccc(Cl)c1 | inconclusive: 100 µM [inhibitor, single point] |  |
| Cc1nc(NC(=O)COC(=O)C2CC3CCCC(C2)C3=O)c(Cl)cc1Cl (configuration not stated) | inconclusive: 63.1 µM [inhibitor, partial curve, poor fit] |  |
| COc1ccc(-c2onc3ccc(C(=O)/C=C/N(C)C)cc23)cc1 | active: 35.5 µM |  |
| COc1ccc(OC)c(NC(=O)C2C(C(=O)O)C3(Cl)C(Cl)=C(Cl)C2(Cl)C3(Cl)Cl)c1 (configuration not stated) | inconclusive: 44.7 µM [inhibitor, partial curve] |  |
| O=C(O)c1c2c(nc3ccc(S(=O)(=O)N4CCC(C(=O)N5CCCCC5)CC4)cc13)CCCC2 | inconclusive: 5.01 µM [inhibitor, full curve, poor fit] |  |
| Cc1ccc(O)c(NC(=S)NC(=O)c2ccccc2Cl)c1 | inconclusive: 44.7 µM [inhibitor, partial curve, poor fit] |  |
| COCCCN(CCOC)C(=O)c1cc2ccccc2c(OC)n1 |  | inactive: -19% |

| SMILES | Potency | activity change, negative = inhibition |
| --- | --- | --- |
| CN1CCN(c2ccc(CNC(=O)c3ccc4c(c3)OCCO4)cc2)CC1 | inconclusive: 112 µM [inhibitor, single point] |  |
| Cc1ccsc1/C=N\Nc1cn[nH]c(=O)c1Cl |  | inactive: -5.51% |
| COc1ccccc1CN1CCC2(CC1)Cc1ccccc1CNC2=O | inconclusive: 3.16 µM [inhibitor, full curve] |  |
| CCOC(=O)c1c(C)[nH]c(C(=O)N/N=C\c2ccccc2O)c1C | inconclusive: 56.2 µM [inhibitor, partial curve, poor fit] |  |
| COc1cc(C(=O)NCCSc2ccc(Cl)cc2)cc(OC)c1OC | inconclusive: 1.78 µM [inhibitor, full curve, poor fit] |  |
| CCN1CCN(CCC(=O)Nc2ccc3c(c2)OCO3)CC1 | inconclusive: 44.7 µM [inhibitor, partial curve, poor fit] |  |
| O=C(CCc1ccc(S(=O)(=O)N2CCOCC2)cc1)OCC(=O)c1ccc(Br)cc1 | inconclusive: 141 µM [inhibitor, single point] |  |
| Cc1ncsc1CN1CCc2nn(C)c(=O)n2CC1 |  | inactive: 32.3% |
| O=C(c1cc(-c2ccccc2)nc2ccccc12)N(Cc1ccco1)C1CC1 |  | inactive: 33.3% |
| COc1ccc(/C=N/N2C(=O)CSC2=S)cc1Br | inconclusive: 50.1 µM [inhibitor, partial curve, poor fit] |  |
| Cc1ccccc1C(=O)N1CCN(c2ccc(NC(=O)c3ccc([N+](=O)[O-])o3)cc2)CC1 | inconclusive: 112 µM [inhibitor, partial curve, poor fit] |  |
| O=C1c2ccccc2C(=O)N1CNc1ccccc1 |  | inactive: -0.0502% |
| COCCCNS(=O)(=O)c1cccc2cc(C)cnc12 | inconclusive: 50.1 µM [inhibitor, partial curve, poor fit] |  |
| CC1=C[C@@H](CN2CCC[C@H]2CO)[C@H](C(C)C)C[C@H]1Cc1nnc(-c2ccc(N(C)C)cc2)o1 |  | inactive: 107% |
| CC(C)=CCC/C(C)=C/CNC(=O)CC1C[C@H](C(=O)N2CCOCC2)[C@@]2(C)c3[nH]c4ccccc4c3CCN2C1=O (some centres not stated) | inconclusive: 100 µM [inhibitor, single point] |  |
| O=C(CC1C(=O)NCCN1Cc1cccc(Oc2ccccc2)c1)NCc1ccoc1 (configuration not stated) | inconclusive: 11.2 µM [inhibitor, full curve] |  |
| C#CCn1c(=NC(=O)CN2C(=O)CCC2=O)sc2cccc(OC)c21 |  | inactive: 7.65% |
| COc1ccc(CCNC(=O)C(=O)c2c[nH]c3ccccc23)cc1OC | inconclusive: 100 µM [inhibitor, single point] |  |
| Cc1ccnc(SCC(=O)c2ccc([N+](=O)[O-])cc2)n1 | inconclusive: 20 µM [inhibitor, partial curve, poor fit] |  |
| COc1ccc(C)cc1NC(=O)CSc1nnc2c3cc(-c4ccc(Cl)cc4)nn3ccn12 | inconclusive: 44.7 µM [inhibitor, partial curve, poor fit] |  |
| Cc1csc(N2N=C(c3ccccc3)CC2c2ccc(Cl)cc2)n1 (configuration not stated) | inconclusive: 11.2 µM [inhibitor, full curve, poor fit] |  |

Reformatted as comma-separated lines: 3 of the compounds above
SMILES,Potency,"activity change, negative = inhibition"
CC1=C[C@@H](CN2CCC[C@H]2CO)[C@H](C(C)C)C[C@H]1Cc1nnc(-c2ccc(N(C)C)cc2)o1,,inactive: 107%
CC(C)=CCC/C(C)=C/CNC(=O)CC1C[C@H](C(=O)N2CCOCC2)[C@@]2(C)c3[nH]c4ccccc4c3CCN2C1=O (some centres not stated),"inconclusive: 100 µM [inhibitor, single point]",
O=C(CC1C(=O)NCCN1Cc1cccc(Oc2ccccc2)c1)NCc1ccoc1 (configuration not stated),"inconclusive: 11.2 µM [inhibitor, full curve]",

Source: PubChem BioAssay AID1671190 (National Center for Advancing Translational Sciences (NCATS), 2021)
